In PMC5847545 one finds binding data, which are given here for 1 molecule.

The chains behind the UniProt entries cited, without tags or fusion partners.
UniProt P45481: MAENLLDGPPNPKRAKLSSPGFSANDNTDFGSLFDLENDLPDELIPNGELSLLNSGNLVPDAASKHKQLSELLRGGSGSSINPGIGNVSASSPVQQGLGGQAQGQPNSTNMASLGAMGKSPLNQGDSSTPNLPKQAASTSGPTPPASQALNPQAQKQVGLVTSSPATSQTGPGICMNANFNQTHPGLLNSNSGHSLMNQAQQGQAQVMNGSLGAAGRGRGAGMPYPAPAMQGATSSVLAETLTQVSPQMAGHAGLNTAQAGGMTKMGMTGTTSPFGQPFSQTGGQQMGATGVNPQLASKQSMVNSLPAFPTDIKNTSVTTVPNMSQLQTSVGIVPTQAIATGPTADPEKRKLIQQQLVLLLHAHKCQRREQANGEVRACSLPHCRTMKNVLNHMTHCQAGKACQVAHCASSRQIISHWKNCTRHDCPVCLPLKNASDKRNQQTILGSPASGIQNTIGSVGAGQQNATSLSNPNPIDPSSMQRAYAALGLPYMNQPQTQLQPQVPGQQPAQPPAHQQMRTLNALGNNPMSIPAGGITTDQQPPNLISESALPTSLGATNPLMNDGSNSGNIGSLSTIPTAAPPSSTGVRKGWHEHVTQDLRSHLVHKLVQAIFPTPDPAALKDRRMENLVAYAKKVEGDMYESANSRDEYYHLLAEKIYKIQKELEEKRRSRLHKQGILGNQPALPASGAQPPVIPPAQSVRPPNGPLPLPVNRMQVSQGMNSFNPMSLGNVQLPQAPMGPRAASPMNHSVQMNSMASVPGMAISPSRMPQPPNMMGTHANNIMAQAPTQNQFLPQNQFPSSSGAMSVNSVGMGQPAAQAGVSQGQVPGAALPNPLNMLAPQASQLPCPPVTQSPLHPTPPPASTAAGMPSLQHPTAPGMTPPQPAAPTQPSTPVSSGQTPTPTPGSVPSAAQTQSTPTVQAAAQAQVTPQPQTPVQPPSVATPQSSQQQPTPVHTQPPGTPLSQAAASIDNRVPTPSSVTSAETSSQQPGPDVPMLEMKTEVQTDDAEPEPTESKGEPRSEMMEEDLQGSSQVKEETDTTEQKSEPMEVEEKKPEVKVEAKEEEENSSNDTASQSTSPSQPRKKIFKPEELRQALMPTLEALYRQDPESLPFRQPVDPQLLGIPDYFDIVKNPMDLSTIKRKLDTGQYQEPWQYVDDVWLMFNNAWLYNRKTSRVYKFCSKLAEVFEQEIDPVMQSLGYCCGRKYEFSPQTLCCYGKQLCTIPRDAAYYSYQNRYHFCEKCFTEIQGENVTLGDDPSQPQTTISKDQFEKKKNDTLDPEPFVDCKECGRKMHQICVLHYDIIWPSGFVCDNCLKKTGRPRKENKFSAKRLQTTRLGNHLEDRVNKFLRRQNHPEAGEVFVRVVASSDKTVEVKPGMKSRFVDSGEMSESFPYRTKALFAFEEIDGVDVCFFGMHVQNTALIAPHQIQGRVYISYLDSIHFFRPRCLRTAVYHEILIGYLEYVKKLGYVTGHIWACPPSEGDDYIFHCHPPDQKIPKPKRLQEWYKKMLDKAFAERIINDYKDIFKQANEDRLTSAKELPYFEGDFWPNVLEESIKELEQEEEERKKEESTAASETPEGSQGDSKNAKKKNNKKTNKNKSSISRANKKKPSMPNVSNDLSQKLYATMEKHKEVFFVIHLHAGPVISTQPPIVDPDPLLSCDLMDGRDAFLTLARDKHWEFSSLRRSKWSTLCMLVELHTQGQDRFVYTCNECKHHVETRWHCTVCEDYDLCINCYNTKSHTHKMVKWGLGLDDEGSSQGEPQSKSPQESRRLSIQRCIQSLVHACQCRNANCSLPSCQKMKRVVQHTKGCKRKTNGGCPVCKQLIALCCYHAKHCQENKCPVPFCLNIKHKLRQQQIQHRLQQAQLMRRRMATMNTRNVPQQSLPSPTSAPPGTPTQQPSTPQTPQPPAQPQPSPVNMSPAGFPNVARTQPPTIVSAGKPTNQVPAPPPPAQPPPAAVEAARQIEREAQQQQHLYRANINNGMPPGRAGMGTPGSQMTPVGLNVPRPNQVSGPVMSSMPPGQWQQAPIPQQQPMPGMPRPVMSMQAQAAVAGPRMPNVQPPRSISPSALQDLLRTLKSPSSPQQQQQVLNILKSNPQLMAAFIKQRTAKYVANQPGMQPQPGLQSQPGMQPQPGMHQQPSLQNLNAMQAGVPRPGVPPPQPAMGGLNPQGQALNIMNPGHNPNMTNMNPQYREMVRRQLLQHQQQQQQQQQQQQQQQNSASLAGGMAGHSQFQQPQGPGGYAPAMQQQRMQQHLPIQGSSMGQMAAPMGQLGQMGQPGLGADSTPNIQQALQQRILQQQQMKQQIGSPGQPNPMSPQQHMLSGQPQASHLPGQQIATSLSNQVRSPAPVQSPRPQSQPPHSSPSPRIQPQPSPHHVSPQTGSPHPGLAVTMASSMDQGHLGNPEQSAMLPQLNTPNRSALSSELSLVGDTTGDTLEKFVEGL

This assay deals with FLAG-CBP-HA, wild type (UniProt P45481). The assay can be described thus: affinity purification with mass spectrometry; HEK293T cells overexpressing Flag-CBP and COASY cDNA; CBP immunoprecipitated, COASY peptides found by mass spectrometry (Supplementary Fig. 5c-f).

Results are given in words; binding and its absence hold for the method and conditions named. Binding seen in cells or lysates may run through a third protein. These calls come from enrichment with a bait or labelling near it, and not all partners need be listed. Tags and fused reporters may be left off the sequences shown.

B1: COASY, overexpressed from cDNA with Flag-CBP (protein, UniProt Q13057 1-564)
chain: MAVFRSGLLVLTTPLASLAPRLASILTSAARLVNHTLYVHLQPGMSLEGPAQPQSSPVQATFEVLDFITHLYAGADVHRHLDVRILLTNIRTKSTFLPPLPTSVQNLAHPPEVVLTDFQTLDGSQYNPVKQQLVRYATSCYSCCPRLASVLLYSDYGIGEVPVEPLDVPLPSTIRPASPVAGSPKQPVRGYYRGAVGGTFDRLHNAHKVLLSVACILAQEQLVVGVADKDLLKSKLLPELLQPYTERVEHLSEFLVDIKPSLTFDVIPLLDPYGPAGSDPSLEFLVVSEETYRGGMAINRFRLENDLEELALYQIQLLKDLRHTENEEDKVSSSSFRQRMLGNLLRPPYERPELPTCLYVIGLTGISGSGKSSIAQRLKGLGAFVIDSDHLGHRAYAPGGPAYQPVVEAFGTDILHKDGIINRKVLGSRVFGNKKQLKILTDIMWPIIAKLAREEMDRAVAEGKRVCVIDAAVLLEAGWQNLVHEVWTAVIPETEAVRRIVERDGLSEAAAQSRLQSQMSGQQLVEQSHVVLSTLWEPHITQRQVEKAWALLQKRIPKTHQALD
For B1, the binding result is listed as “binds”.
